The results in this text go back to patent publication US20240050472A1.

No constants are given. Whether binding was seen depends on the method and setting. Some binding calls cover weakened binding; strength is not graded here.

The target in this assay is T1, human Claudin 18.2 (human) (UniProt P56856).
T1 sequence (looked up): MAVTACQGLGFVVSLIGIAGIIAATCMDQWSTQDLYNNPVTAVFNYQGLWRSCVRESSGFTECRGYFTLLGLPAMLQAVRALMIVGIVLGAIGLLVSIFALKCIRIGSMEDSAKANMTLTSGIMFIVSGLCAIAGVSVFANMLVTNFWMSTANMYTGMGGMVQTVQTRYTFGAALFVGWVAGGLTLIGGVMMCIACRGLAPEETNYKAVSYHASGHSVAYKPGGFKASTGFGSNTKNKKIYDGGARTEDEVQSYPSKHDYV
As to the kind of experiment: flow cytometry on cells expressing the target. For orientation: Flow cytometry measures light scatter and fluorescence of single cells or particles in a stream.

B1: anti-Claudin 18.2 antibody 8D2 (antibody, V domains shown)
VH: QVQLKQSGPELVKPGASVKMSCKASGYTFTSYVMHWVKQKPGQGLEWIGYINPYNDGTKYNEKFKGKATLTSDKSSSTAYMELSSLTSEDSAVYYCARRGYYGPYFDYWGQGTTLTVSS
VL: DIVMTQSPSSLTVTAGEKVTMSCKSSQSLLNGGNQKNYLTWYQQKPGQPPKLLIYWASTRESGVPDRFTGSGSGTDFTLTISSVQAEDLAVYYCQNDYYYPYTFGGGTKLEIK
As to B1, the binding entry was “binds”.
